Library screening results

Source: ChEMBL document CHEMBL3988442, “University of Dundee, Small-Polar-MMV Screening Library” (2021).

A: 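Whole-cell assay for inhibitors of Mycobacterium tuberculosis growth, labelled Cornell in the record; the read-out is not stated. The concentration is filed as 10 mM, unlikely as a test dose, so the dose is not known. The record gives no direction; compounds strong in two other growth screens of this library score well above the rest, so higher reads as stronger inhibition. Of about 53,000 compounds tested this way, about 900 (1.7%) reached 50% or more in at least one test.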
B: 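Assay on Mycobacterium tuberculosis, filed only as a heat shock assay from Cornell; the read-out is not stated. The concentration is filed as 10 mM, unlikely as a test dose, so the dose is not known. Direction is inferred from retests: higher values go with stronger inhibition. About 69,000 compounds were tested under these conditions; 1.4% (about 930) showed 50% or more at least once.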

Results are given as percent effect. How 0% and 100% were set is not recorded. Most values in the screen are low, and negative values occur. This is an unselected part of the compounds tested.

With CSCc1noc(CNC(=O)C2CCN(C(=O)C3CCC3)CC2)n1 the screen gave B: 10.39%.
With CCn1ccnc1CN1CCCN(C(=O)Cc2ccc(C)cc2)CC1 the screen gave B: 1.281%.
With NC1(CN2CCOCC2)CCCCC1 the screen gave A: -1.204%; B: -0.8544%.
With O=C(O)C(F)(F)F.O=C(O)C(F)(F)F.O=C(c1ccncc1)N1CCCC2(CCN(c3cccnc3)C2=O)C1 (configuration not stated) the screen gave A: 2.741%; B: -29.8%.
With CN(C)C(=O)c1ccc(C(C(=O)O)N(C)Cc2ccccc2Cl)cc1 (configuration not stated) the screen gave A: 6.122%; B: 12.32%.
With Cc1ccccc1CC(C)(C)NC(=O)CCOc1cccc(C(N)=O)c1 the screen gave A: 30.98%; B: 10.56%.
With O=C(c1cccs1)N1CCN(CC2CC2)c2ncccc2C1 the screen gave A: 16.15%; B: -15.76%.
With Cc1ncc2c(n1)CN(CCCc1ccccc1)CC2 the screen gave B: 3.621%.
With CCN(CC)C(=O)Cn1ccc2cc(NC(C)=O)ccc21 the screen gave B: -1.887%.
With CC(C)OCCNC(=O)C1CCC(=O)N(C2CCCC2)C1 (configuration not stated) the screen gave B: 14.27%.
With CC(=O)N1CCC2(CC1)CN(C(=O)c1cccc3[nH]ccc13)CCO2 the screen gave A: 10.8%; B: -1.966%.
With Cc1ccc2cccc(S(=O)(=O)N(C)CC3CCN(C)CC3)c2n1 the screen gave A: -61.06%; B: 1.686%.
With CCc1noc(CN(CC(=O)N2CCCCC2)c2cccc(C)c2)n1 the screen gave A: 42.39%; B: -37.03%.
With CCOC(=O)N1CCN(CC(=O)Nc2nnc(CC)s2)CC1 the screen gave A: 11.76%; B: -3.438%.
With CCC(=O)NCc1cc(Br)c(OC)c(OC)c1 the screen gave A: 11.51%; B: -3.165%.
With CN(Cc1csc(-c2cnn(C)c2)n1)CC1CCN(CCO)CC1 the screen gave B: -42.75%.
With Cc1cc(F)cc2c(N3CCS(=O)(=O)CC3)c(C#N)cnc12 the screen gave B: 6.734%.
With COCC(=O)N1CC[C@@H](N2CCN(C)CC2)[C@@H]1Cc1ccccc1 the screen gave A: -37.13%; B: -20.47%.
With COCCC(=O)N1CC2(CCN(Cc3ccccc3Cl)CC2)C1.O=C(O)C(F)(F)F the screen gave A: -17.84%; B: 12.96%.
With COCCN1CCC2(CC1)CN(C(=O)c1ccco1)CCO2.O=C(O)C(F)(F)F the screen gave A: -24.91%; B: -23.42%.
With O=C(O)C(F)(F)F.[H][C@@]12CN(Cc3nccs3)CCC[C@]1(C(=O)OCC)CN(C(C)=O)C2 the screen gave A: 10.98%; B: -13.05%.
With [H][C@@]12CCN(C(=O)c3cccn3C)CC[C@@]1([H])N(CCN(C)C)CCO2 the screen gave A: -14.58%; B: 38.64%.
With OCCN1CCC(CNCc2ccccc2OC(F)(F)F)CC1 the screen gave B: 6.783%.
With NC(=O)CC1CCN(C(=O)c2cccn2Cc2cccs2)CC1 the screen gave B: 6.224%.
With Cc1ncc(-c2ccnc(NCCO)n2)c(C2CCCCC2)n1 the screen gave A: -30.62%; B: -45.46%.
With CCC(NCc1ncc[nH]1)c1nc(C(F)(F)F)cs1 (configuration not stated) the screen gave A: 13.15%; B: -14.4%.
With CS(=O)(=O)c1ccc(NC(=O)N2CCc3sccc3C2)cn1 the screen gave A: 11.63%; B: 11.66%.
With c1ccc(COCCN2CCc3[nH]cnc3C2c2ccoc2)cc1 (configuration not stated) the screen gave A: 3.825%; B: -33.83%.
With [H][C@]12CCC[C@@]1(COCC)CN(C(=O)c1ccc(OC)cc1)C2 the screen gave A: -12.01%; B: 37.18%.

Once more, the final 2:

| structure | A | B |
|---|---|---|
| `c1ccc(COCCN2CCc3[nH]cnc3C2c2ccoc2)cc1` (configuration not stated) | 3.825% | -33.83% |
| `[H][C@]12CCC[C@@]1(COCC)CN(C(=O)c1ccc(OC)cc1)C2` | -12.01% | 37.18% |